This assay concerns the target CFTR (Homo sapiens, UniProt P13569). As to the kind of experiment: Membrane Potential Dye, Enteroid Assay A. The class given is cell-based. The note with it: for EC50: read-out: Ent. A EC50.

Chains of the proteins cited; added tags and fusions are not shown. A line that says so, or that is headed by a name, gives the form on record, which may keep a tag or linker.
UniProt P13569, with tags, fused parts or gaps DEL508-508: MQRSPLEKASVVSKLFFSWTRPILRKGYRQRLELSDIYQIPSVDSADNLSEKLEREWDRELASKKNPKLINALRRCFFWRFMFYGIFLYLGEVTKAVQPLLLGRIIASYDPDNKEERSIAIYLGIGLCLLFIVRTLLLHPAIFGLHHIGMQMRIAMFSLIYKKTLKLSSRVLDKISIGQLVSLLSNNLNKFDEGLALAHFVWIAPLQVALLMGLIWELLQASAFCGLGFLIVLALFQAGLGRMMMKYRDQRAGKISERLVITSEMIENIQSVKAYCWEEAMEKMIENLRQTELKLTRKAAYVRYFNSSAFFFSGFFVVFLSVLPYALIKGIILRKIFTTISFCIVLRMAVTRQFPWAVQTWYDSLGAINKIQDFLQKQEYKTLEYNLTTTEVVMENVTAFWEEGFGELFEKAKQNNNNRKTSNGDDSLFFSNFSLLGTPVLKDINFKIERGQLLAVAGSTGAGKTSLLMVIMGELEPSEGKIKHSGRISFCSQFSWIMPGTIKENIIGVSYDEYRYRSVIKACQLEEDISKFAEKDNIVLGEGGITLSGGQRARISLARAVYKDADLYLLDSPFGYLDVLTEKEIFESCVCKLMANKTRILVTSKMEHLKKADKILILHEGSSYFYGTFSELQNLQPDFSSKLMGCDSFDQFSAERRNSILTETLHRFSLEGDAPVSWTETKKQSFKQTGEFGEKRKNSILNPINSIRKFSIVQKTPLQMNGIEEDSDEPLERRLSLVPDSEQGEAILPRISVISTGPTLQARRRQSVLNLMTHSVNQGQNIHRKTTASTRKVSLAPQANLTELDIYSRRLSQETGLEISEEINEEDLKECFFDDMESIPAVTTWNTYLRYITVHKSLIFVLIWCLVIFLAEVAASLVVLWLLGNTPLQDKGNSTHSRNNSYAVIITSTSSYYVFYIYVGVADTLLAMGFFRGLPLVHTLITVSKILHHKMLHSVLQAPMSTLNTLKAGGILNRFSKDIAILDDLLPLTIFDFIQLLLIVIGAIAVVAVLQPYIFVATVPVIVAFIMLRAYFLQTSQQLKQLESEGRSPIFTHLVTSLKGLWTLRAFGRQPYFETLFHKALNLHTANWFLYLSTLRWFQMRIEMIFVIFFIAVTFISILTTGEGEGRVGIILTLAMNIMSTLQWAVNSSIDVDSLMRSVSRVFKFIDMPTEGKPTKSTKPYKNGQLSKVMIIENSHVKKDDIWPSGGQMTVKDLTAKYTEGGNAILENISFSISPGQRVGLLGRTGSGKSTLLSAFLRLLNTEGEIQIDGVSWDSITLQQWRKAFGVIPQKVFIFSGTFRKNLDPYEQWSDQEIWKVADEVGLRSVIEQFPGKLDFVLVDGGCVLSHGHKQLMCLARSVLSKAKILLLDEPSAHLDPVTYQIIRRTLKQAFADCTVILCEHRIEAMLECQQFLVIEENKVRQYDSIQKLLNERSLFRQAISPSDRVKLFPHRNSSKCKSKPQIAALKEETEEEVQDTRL

By EC50 is commonly meant the concentration at which the effect is half-maximal.

Where two headings read alike, the source gives them in different places. The match of structure and compound is tentative. A value given as a limit tells only on which side of the number the result lay.

As to `Cc1cccc(C)c1-c1cc2nc(n1)NS(=O)(=O)c1cccc(c1)C(=O)N[C@H](CCc1ccccc1)CO2`, for the setting “Enteroid Assay A”, the “Ent. A Max Activity” value is recorded as “+++ (+++ is >600%)” and the EC50 fell in the range of 1000 to 3000 nM.

With `CCC1CCC(c2cc3nc(n2)NS(=O)(=O)c2cccc(c2)C(=O)N[C@H](CC(C)C)CO3)CC1` (stereo partly drawn) [Compound 310], for the setting “Table 8”, the “Ent. A Max Activity” value was “++ (++ is 306%)” and the EC50 was under 1000 nM.

Turning to `Cc1cccc(C)c1-c1cc2nc(n1)NS(=O)(=O)c1cccc(c1)C(=O)NCC1(CCN(CC3CCN(C(=O)OC(C)(C)C)C3)CC1)CO2` (stereo not drawn), where the note is “Enteroid Assay A”, the “Ent. A Max Activity” value is listed as “++ (++ is 30-60%)” and the EC50 is 3000 to 30000 nM.

These data come from patent publication US20230382924A1, “MODULATORS OF CYSTIC FIBROSIS TRANSMEMBRANE CONDUCTANCE REGULATOR” (VERTEX PHARMACEUTICALS INCORPORATED, priority 2020, published 2023).
